6 molecules from US20090203538A1 can be followed below.

Amino acid sequences for entries named in this document (tags omitted). A change or cut given only in a name is not applied to a line headed by its entry.
UniProt P26006: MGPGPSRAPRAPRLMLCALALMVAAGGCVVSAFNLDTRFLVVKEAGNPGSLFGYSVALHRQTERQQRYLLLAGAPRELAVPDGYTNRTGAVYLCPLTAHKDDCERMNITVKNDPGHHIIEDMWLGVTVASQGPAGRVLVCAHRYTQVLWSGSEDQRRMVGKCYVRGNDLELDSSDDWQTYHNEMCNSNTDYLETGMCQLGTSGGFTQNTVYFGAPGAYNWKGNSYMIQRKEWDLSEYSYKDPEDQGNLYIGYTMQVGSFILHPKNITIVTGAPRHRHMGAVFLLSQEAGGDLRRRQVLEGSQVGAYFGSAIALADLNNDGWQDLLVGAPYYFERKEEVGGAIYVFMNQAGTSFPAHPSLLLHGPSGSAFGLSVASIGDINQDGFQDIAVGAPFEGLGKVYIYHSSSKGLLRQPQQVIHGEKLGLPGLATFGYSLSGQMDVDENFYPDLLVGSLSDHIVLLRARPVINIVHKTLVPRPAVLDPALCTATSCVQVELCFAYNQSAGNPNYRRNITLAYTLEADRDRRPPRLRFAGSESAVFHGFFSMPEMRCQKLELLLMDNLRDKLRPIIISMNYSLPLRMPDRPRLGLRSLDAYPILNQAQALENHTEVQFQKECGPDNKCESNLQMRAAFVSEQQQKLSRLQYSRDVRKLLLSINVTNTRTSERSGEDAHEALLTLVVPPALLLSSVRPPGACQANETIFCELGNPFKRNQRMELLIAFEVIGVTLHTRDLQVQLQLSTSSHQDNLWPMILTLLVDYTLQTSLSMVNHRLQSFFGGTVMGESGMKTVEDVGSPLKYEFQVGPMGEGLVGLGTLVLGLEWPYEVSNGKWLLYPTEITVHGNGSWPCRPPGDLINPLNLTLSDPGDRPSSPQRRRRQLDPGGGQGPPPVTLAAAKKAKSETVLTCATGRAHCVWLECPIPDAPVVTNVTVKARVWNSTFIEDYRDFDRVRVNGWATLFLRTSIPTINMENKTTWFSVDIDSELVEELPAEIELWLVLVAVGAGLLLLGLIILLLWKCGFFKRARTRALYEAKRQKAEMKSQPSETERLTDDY

Results are given in words; binding and its absence hold for the method and conditions named. Some binding calls cover weakened binding; strength is not graded here.

Assay [1] concerns the target ITGA3 (integrin alpha 3) (Homo sapiens (Human)) (UniProt P26006). As to the kind of experiment: antigen assigned by the filing's classifying and identification method; details for this clone not given.
Assay [2] has the same target. As to the kind of experiment: flow cytometry on SKOv-3 cells with ITGA3 or ITGB1 RNAi, cp3 type antibody; peak pattern like that of an anti-ITGA3 antibody.

B1: 064-085 antibody (antibody, V domains shown)
VH: QVQLVQSGAEVKKPGASVKVSCKASGYTFTSYGISWVRQAPGQGLEWMGWISAYNGNTNYAQKLQGRVTMTTDTSTSTAYMELRSLRSDDTAVYYCARDRYYGSGFGMDVWGQGTMVTVSR
VL: SSELTQDPAMSVALGQTVKITCQGDSLTNYYPSWYQQKPGQAPVLVMYGKDSRPSGISDRFSGSSSGISASLTITGAQAEDEADYYCNSRDGSAHRLVFGGGTKLTVLG
Regarding B1, the binding result in assay [1] and in assay [2] was “binds” in each case.

B2: 064-002 antibody (antibody, V domains shown)
VH: QVQLQESGPGLVKPSETLSLTCTVSGGSISSYYWSWIRQPAGKGLEWIGRIYTSGSTNYNPSLKSRVTMSVDTSKNQFSLKLSSVTAADTAVYYCARERAYCSSTSCYRNAFDIWGQGTTVTVSR
VL: QSVLTQPPSVSGAPGQRVNISCAGSSSNIGAGYDVHWYQQIPGTAPKLLMYGNSNRPSGVPDRFSGSKSGASASLAITRLQAEDEADYYCQSYDSSLSGSRVFGTGTKVTVLG
Consider B2, for which the binding result in assay [1] and in assay [2] was “binds” in each case.

B3: 064-093 antibody (antibody, V domains shown)
VH: QVQLVQSGAEVKKPGASVKVSCKASGYTFTNYGLTWVRQAPGQGLEWMGWISTYNSNTNYAEKLQGRVTMTTDTSTSTAYMELRSLTSDDTAVYYCARGPTYSFDSSGYFFDYWGQGTLVTVSR
VL: SSELTQDPAVSVALGQTVRITCQGDSLRSYYASWYQQKPGQAPVLVIYGKNNRPSGIPDRFSGSSSGNTASLTITGAQAEDEADYYCNSRDSSGNHWVFGGGTKLTVLG
Regarding B3, the binding entry in assay [1] and in assay [2] was “binds” in each case.

B4: 064-116 antibody (antibody, V domains shown)
VH: QVQLVQSGAEVKKPGASVKVSCKASGYTFTSYGISWVRQAPGQGLEWMGWISAYNGNTNYAQKLQGRVTMTTDTSTSTAYMELRSLRSDDTAVYYCARDTYSSGWYFDYWGQGTLVTVSR
VL: SSELTQDPAVSVALGQTVRITCQGDSLRNYYASWYQQKPGQAPVLVIYGKNNRPSGIPDRFSGSSSGNTASLTITGAQAEDEADYYCNSRDSSGNHLYVFGTGTKVTVLG
Consider B4, for which the binding result in assay [1] and in assay [2] was “binds” throughout.

B5: 015-003 antibody (antibody, V domains shown)
VH: QVQLVQSGAEVKKPGASVKVSCKASGYTFTSYGISWVRQAPGQGLEWMGWISAYNGNTNYAQKLQGRVTMTTDTSTSTAYMELRSLRSDDTAVYYCATAASLKYYYDSSGYYYWGQGTLVTVSR
VL: SSELTQDPAVSVALGQTVRITCQGDSLRSYYASWYQQKPGQAPVLVISGKNNRPSGIPDRFSGSSSGDTASLTITGAQAEDEANYYCNSRDSSGYPSWVFGGGTKLTVLG
Turning to B5, the binding entry in assay [2] is listed as “binds”.

B6: 068-007 antibody (antibody, V domains shown)
VH: EVQLVESGAEVKKPGASVKVSCKASGYTFTSYGISWVRQAPGQGLEWMGWISAYNGNTNYAQKLQGRVTMTTDTSTSTAYMELRSLRSDDTAVYYCAREKYSSGWYFDYWGQGTLVTVSR
VL: SSELTQDPAVSVALGQTVRITCQGDSLRSYYASWYQQKPGQAPVLVIYGKNNRPSGIPDRFSGSSSGNTASLTITGAQAEDEADYYCNSRDSSGNHHYVFGTGTKVTVLG
As to B6, the binding result in assay [1] and in assay [2] was “binds” each time.
